# Assay results: the supplement of paper PMC12067093, “Discovery and optimisation of a covalent ligand for TRIM25 and its application to targeted protein ubiquitination” (Chemical Science, 2025)
# Sequences of proteins named here, by UniProt entry; tags and fusion partners are left off. A change or cut given only in a name is not applied to a line headed by its entry.
# UniProt Q92620: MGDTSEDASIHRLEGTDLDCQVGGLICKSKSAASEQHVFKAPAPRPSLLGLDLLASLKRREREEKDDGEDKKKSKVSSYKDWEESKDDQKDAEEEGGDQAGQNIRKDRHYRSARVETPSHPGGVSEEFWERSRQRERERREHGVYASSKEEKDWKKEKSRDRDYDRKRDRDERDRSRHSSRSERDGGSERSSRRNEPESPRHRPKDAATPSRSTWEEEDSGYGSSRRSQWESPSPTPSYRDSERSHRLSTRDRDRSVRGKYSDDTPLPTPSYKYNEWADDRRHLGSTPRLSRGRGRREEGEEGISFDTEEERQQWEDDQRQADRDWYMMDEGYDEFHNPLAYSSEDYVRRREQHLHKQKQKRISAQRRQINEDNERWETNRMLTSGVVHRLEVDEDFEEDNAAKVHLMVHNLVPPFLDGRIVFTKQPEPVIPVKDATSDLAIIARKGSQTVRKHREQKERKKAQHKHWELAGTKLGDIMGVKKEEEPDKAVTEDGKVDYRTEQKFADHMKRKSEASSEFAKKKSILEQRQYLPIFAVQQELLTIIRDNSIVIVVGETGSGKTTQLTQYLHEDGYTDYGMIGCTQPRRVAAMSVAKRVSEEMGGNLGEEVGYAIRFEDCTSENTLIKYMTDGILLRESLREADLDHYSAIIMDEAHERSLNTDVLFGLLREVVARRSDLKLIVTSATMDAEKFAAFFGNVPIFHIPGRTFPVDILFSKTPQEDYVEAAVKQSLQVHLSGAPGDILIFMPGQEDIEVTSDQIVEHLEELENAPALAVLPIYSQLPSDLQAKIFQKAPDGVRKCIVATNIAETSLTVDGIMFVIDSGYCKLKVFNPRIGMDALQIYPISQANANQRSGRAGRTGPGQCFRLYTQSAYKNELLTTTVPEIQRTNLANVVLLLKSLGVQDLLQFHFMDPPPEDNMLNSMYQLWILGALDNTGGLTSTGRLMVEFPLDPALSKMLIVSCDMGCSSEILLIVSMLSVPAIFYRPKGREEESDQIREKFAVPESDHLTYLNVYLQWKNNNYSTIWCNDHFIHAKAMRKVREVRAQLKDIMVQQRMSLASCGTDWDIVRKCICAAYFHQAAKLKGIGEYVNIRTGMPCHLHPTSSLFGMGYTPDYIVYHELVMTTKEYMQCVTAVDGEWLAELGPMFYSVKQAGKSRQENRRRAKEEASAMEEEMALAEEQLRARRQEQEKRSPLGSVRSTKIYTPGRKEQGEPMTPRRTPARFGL
# UniProt Q08211, whole entry, looked up: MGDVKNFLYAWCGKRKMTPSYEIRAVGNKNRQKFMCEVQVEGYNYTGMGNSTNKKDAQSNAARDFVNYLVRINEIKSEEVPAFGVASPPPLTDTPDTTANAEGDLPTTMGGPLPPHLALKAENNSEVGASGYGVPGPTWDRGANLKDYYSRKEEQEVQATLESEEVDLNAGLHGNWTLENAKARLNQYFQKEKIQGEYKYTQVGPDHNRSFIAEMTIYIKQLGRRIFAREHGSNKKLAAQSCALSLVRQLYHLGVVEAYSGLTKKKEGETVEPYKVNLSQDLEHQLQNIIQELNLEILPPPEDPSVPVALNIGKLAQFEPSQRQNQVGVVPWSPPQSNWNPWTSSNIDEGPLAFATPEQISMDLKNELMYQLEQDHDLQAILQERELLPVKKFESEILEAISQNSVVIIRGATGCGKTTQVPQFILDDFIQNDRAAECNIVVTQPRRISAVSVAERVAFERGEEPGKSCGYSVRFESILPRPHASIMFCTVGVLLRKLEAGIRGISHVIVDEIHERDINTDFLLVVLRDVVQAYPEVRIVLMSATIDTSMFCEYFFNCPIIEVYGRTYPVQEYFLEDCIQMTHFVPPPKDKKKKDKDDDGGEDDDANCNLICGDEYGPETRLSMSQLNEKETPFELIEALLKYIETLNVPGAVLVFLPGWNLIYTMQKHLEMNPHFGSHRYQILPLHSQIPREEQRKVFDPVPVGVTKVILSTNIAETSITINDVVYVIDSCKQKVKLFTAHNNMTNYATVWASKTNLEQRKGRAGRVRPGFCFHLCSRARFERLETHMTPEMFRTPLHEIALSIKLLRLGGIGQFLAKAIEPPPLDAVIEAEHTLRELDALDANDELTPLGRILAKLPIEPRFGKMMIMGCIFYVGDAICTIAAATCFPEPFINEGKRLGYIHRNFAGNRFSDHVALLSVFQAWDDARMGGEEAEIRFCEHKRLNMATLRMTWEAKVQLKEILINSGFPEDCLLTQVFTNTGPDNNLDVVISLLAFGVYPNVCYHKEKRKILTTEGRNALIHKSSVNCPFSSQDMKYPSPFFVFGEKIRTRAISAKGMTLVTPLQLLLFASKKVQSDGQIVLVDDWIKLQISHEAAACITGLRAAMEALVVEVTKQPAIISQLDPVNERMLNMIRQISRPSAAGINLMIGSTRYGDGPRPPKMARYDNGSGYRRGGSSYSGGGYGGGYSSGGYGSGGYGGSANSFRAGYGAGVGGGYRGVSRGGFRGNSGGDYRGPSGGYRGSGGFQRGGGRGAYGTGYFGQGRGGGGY
# UniProt Q9Y2L1: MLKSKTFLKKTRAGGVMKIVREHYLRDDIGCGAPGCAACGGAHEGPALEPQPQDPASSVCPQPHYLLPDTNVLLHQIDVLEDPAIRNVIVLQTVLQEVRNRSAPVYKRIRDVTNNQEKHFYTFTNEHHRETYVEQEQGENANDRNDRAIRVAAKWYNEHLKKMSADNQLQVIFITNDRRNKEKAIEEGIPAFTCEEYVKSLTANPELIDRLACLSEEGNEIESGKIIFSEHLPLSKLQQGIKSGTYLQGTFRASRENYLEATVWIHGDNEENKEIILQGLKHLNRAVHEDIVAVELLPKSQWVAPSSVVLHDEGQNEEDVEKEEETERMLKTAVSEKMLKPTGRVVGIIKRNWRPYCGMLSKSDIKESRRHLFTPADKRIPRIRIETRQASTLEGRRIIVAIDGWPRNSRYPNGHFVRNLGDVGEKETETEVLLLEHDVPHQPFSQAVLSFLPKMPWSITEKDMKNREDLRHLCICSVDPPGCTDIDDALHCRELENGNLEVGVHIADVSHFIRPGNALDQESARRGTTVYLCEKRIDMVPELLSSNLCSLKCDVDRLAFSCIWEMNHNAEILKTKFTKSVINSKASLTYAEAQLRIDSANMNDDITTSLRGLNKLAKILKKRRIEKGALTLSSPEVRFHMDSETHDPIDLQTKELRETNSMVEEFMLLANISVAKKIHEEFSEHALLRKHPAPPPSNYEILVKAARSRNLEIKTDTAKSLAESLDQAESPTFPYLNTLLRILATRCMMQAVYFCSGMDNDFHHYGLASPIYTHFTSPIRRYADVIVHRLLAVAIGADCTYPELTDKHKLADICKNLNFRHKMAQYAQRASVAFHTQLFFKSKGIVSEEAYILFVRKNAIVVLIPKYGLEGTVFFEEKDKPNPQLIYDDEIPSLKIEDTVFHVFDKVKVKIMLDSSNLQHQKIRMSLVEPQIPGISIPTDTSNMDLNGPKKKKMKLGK
# UniProt Q13217: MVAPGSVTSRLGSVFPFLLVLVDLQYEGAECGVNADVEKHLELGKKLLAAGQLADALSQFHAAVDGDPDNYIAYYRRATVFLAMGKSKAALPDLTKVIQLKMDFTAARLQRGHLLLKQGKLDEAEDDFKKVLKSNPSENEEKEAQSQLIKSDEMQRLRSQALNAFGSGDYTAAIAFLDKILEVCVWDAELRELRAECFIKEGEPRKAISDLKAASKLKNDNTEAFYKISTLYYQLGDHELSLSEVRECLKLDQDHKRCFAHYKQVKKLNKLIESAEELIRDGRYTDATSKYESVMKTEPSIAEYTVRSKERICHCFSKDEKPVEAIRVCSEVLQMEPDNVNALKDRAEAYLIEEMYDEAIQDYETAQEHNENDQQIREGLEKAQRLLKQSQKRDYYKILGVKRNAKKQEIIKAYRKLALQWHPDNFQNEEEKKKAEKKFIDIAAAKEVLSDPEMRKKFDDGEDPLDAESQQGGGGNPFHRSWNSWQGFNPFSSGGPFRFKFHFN
# UniProt Q9NVH1: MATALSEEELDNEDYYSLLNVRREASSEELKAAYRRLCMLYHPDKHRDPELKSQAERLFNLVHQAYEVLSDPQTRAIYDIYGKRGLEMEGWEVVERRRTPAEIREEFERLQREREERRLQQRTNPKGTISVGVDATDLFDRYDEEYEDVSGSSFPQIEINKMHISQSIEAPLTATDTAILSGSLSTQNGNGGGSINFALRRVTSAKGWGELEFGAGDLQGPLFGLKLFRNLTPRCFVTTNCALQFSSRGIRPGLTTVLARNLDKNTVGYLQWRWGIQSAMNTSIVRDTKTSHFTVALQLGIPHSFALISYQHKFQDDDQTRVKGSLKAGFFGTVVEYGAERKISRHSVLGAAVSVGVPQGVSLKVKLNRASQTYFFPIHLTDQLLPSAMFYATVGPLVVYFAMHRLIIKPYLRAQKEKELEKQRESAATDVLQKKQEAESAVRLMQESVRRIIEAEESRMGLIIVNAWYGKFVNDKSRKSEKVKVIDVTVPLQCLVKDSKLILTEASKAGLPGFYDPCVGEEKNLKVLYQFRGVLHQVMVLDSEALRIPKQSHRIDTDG
# UniProt O43143: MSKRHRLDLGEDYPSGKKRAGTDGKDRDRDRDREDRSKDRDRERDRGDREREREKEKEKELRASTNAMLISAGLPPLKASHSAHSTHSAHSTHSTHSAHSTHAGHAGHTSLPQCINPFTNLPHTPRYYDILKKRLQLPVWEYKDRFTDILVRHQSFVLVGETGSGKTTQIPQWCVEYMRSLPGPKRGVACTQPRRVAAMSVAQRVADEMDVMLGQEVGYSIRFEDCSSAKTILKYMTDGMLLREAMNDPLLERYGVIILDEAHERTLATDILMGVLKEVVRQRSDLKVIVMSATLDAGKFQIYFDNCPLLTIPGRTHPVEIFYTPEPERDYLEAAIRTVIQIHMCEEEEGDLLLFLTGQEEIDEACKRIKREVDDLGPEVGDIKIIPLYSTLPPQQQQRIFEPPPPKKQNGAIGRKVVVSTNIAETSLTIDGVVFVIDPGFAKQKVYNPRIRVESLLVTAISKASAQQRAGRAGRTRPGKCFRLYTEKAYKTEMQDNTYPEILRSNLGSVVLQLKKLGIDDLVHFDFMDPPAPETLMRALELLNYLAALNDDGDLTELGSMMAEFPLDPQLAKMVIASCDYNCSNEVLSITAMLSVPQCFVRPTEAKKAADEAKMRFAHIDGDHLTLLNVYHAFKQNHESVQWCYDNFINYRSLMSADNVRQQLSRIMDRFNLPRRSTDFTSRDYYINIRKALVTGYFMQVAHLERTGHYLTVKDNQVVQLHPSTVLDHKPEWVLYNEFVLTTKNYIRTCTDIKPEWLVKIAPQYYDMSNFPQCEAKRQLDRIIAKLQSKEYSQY
# UniProt Q9H2U1: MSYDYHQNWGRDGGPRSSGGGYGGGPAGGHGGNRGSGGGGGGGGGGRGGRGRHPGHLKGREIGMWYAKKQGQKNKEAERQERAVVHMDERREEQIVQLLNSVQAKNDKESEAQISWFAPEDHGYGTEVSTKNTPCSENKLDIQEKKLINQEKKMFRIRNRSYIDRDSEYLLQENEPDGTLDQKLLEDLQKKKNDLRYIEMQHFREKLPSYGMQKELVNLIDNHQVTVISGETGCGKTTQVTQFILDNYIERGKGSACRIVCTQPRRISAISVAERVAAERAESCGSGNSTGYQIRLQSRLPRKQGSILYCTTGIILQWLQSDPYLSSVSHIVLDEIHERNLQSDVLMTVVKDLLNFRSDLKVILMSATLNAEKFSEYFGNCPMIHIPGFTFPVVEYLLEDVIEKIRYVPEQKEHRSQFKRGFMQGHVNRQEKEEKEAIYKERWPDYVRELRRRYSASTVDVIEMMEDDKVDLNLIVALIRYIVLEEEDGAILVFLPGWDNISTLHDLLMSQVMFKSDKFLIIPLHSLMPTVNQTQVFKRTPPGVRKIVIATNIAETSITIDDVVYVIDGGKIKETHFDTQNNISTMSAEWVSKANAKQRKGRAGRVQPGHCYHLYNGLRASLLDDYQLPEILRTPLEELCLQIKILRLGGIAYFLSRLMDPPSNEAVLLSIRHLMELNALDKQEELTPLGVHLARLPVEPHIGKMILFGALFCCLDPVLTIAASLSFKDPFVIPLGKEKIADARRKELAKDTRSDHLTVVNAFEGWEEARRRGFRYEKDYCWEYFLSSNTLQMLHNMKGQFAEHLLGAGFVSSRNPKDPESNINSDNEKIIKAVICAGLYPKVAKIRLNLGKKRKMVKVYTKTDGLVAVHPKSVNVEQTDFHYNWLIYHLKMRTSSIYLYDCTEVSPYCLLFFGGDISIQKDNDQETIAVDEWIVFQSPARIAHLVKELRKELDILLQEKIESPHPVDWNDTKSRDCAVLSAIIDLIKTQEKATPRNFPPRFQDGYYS
# Some of the results follow.
# Compound: Cc1cc(ccc1-c1ccccc1)C(=O)N1CCCN(CC1)C(=O)CCl [compound 10]
# Experiment: probe-labelled cysteine peptide fold change vs DMSO (competition) (log2 fold change); higher = less target engagement (more negative = stronger competition)
# Details: THP-1, incubation time: 4 h
# 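Note: competitive profiling in live THP-1 cells: cysteine peptides tagged with an iodoacetamide desthiobiotin (IA-DTB) probe, intensity after compound treatment relative to DMSO-treated cells.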
Target,probe-labelled cysteine peptide fold change (10 µM),probe-labelled cysteine peptide fold change (50 µM)
DHX38_Q92620_27_GDTSEDASIHRLEGTDLDCQVGGLICK (UniProt Q92620),0.122,-0.362
DHX37_Q8IY37_766_LSCPITALGR (UniProt Q8IY37),-0.0307,-0.228
DHX9_Q08211_1099_LQISHEAAACITGLR (UniProt Q08211),0.136,0.171
DIS3_Q9Y2L1_474+492_HLCICSVDPPGCTDIDDALHCR (UniProt Q9Y2L1),-0.0307,-0.115
DIAPH2_O60879_159_HECTLSSQEYVHELR (UniProt O60879),-0.137,-0.304
DHX16_O60231_37_CTSAEEFVQR (UniProt O60231),0.138,0.182
DNAJC3_Q13217_248_ISTLYYQLGDHELSLSEVRECLK (UniProt Q13217),-0.168,-0.338
DMXL2_Q8TDJ6_2925_KGHVCIFDIR (UniProt Q8TDJ6),-0.0272,0.0183
DHX9_Q08211_940_FCEHKR (UniProt Q08211),0.0491,-0.181
DIS3_Q9Y2L1_492_HLCICSVDPPGCTDIDDALHCR (UniProt Q9Y2L1),-0.0426,-0.201
DLGAP5_Q15398_696_SSIEDAQCPGLPDLIEENHVVNK (UniProt Q15398),-0.229,-0.194
DIDO1_Q9BTC0_261_PKPECEGYDPNALYCICR (UniProt Q9BTC0),-0.286,-0.361
DNAJA1_P31689_180_IHQIGPGMVQQIQSVCMECQGHGER (UniProt P31689),-0.0792,-0.0611
DHX40_Q8IX18_497_LGLSMVEFPLPPHLTCAVIK (UniProt Q8IX18),0.0595,-0.186
DNM1L_O00429_367_ICYIFHETFGR (UniProt O00429),-0.299,-0.657
DIAPH1_O60610_1027_MTLLHFLAELCENDYPDVLKFPDELAHVEK (UniProt O60610),0.0397,-0.441
DHX29_Q7Z478_1025_CNLGSPEDFLSK (UniProt Q7Z478),0.0191,-0.143
DIS3L2_Q8IYB7_216_DETTCISQDTR (UniProt Q8IYB7),-0.209,0.0244
DNAJA1_P31689_261_RGEDLFMCMDIQLVEALCGFQK (UniProt P31689),0.326,0.324

Target,probe-labelled cysteine peptide fold change (10 µM),probe-labelled cysteine peptide fold change (50 µM)
DKC1_O60832_310_DSAVNAICYGAK (UniProt O60832),0.124,0.0135
DNAJC11_Q9NVH1_38_LCMLYHPDK (UniProt Q9NVH1),0.0505,-0.135
DNAJA4_Q8WW22_138_CEGVGGK (UniProt Q8WW22),0.0156,-0.271
DNAJA1_P31689_149+150+153_GAVECCPNCR (UniProt P31689),0.00355,-0.922
DNAJC11_Q9NVH1_494_VIDVTVPLQCLVK (UniProt Q9NVH1),0.174,0.226
DMXL2_Q8TDJ6_1897_VGCPVLALEVLSK (UniProt Q8TDJ6),0.0214,-0.0631
DHX15_O43143_307_FQIYFDNCPLLTIPGR (UniProt O43143),0.0607,0.479
DHX38_Q92620_582_TTQLTQYLHEDGYTDYGMIGCTQPR (UniProt Q92620),-0.0245,0.135
DHX15_O43143_226_FEDCSSAK (UniProt O43143),-0.00866,0.0648
DNAJB1_P25685_179_VSLEEIYSGCTKK (UniProt P25685),-0.128,-0.598
DHX37_Q8IY37_616_LCVVATNVAETSLTIPGIK (UniProt Q8IY37),0.141,0.0852
DHX36_Q9H2U1_135_NTPCSENK (UniProt Q9H2U1),-0.18,-0.294
DHX33_Q9H6R0_190_KYSCVILDEAHER (UniProt Q9H6R0),-0.0316,-0.0932
DHX38_Q92620_1074_CICAAYFHQAAK (UniProt Q92620),0.137,-0.05
DNAJC13_O75165_820_YECLAEEIK (UniProt O75165),0.23,0.687
DHX37_Q8IY37_274_LKLPILSEEQVIMEAVAEHPIVIVCGETGSGK (UniProt Q8IY37),0.0729,-0.0533
DIMT1_Q9UNQ2_259_IHCSVHNIIIPEDFSIADK (UniProt Q9UNQ2),0.269,0.229
DNAJC3_Q13217_184_ILEVCVWDAELR (UniProt Q13217),0.242,0.13
DNAJA1_P31689_153_GAVECCPNCR (UniProt P31689),0.0991,-0.0589
